# Laboratory results reported in PMC11063955, “A multiplexed time-resolved fluorescence resonance energy transfer ultrahigh-throughput screening assay for targeting the SMAD4–SMAD3–DNA complex” (Journal of Molecular Cell Biology, 2023).
# The exact form of at least one protein or probe is not confirmed. Where cells or extracts were used, other partners may take part. At least one verdict rests on a figure or table, not on a statement of the authors.
# System: His-SMAD4 + Flag-SMAD3
# Test: TR-FRET (Tb-FAM PDI)
# Conditions: cell lysate co-expressing both proteins; Pre-diluted cell lysate, 30 ul in 384-well plate, anti-FLAG M2-Tb 1:1000, anti-6xHis-D2 1:500, FAM oligo serially diluted 2-fold from 500 nM stock, 4 C 30 min; protein in a lysate after overexpression; protein details: 6xHis,Flag; label: 5'-FAM on strand 1 (3'-FAM version also listed)
sequence,measurement,value
CGCGTAAGAGCTCGGTACGTCTAGACTGCCGTCTAGACTTAGTACGTCTAGACTGCCGTCTAGACTTAGTACCTATCGATAGC (double strand) [FAM-SBE4],binding result,binds
